Assay results from PubChem BioAssay AID2551 (National Center for Advancing Translational Sciences (NCATS), 2010).
Hit rate of the full screen: of about 310,000 compounds, about 17,000 (5.5%) were called active. Inconclusive means that the source gave no clear call. Such entries were picked first, then a sample of the others. Calls come from the whole dose curve; as a rule, active = well fitted inhibition curve with a large enough effect; inconclusive = small, poorly fitted or top-dose-only effect, or effect the other way; inactive = no such curve, though single readings can be large or run the other way. A potency beside an inconclusive call is a rough fit, not a confirmed value.

Protein sequences, listed by entry. Tags and fused reporters are not part of them. Lines headed by an entry give the natural chain unless they say otherwise; changes in a name come on top.
UniProt P51450: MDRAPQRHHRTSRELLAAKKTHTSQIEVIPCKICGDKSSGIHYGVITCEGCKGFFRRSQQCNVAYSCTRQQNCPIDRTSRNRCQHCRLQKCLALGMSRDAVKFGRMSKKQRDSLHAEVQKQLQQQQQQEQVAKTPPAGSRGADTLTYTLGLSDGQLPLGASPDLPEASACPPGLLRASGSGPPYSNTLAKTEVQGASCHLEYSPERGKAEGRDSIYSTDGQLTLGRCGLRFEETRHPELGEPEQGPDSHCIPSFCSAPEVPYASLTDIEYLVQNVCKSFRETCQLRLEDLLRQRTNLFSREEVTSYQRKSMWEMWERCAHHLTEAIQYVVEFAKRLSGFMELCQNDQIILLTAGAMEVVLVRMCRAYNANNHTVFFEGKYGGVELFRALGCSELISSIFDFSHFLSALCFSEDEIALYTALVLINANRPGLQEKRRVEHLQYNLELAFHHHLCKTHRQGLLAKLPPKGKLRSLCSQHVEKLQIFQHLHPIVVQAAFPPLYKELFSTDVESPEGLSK

Target: Nuclear receptor ROR-gamma (Mus musculus) (UniProt P51450)
Test: qHTS for inhibitors of ROR gamma transcriptional activity; note: nearly all actives have a fitted effect of over 60% in size
Settings: Drosophila S2 Gal4-RORgamma UAS-luciferase reporter, 20 h; series mostly up to 53.6 µM
Method in brief: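 Schneider cells (Drosophila), stable Gal4 DBD–ROR gamma + UAS-luc; 1 hr cmpd preincubation; Cu2+ induction 700 uM final; 20 hr ambient; luminescence.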
Potency is the fitted concentration of half-maximal effect.

| SMILES | Potency |
| --- | --- |
| O=C(Nc1ccc(Cl)c(Cl)c1)Nc1ccccc1O | inconclusive: 14.1 µM [activator, single point] |
| COC(=O)c1cnn(-c2ccccc2)c1N | inconclusive: 0.355 µM [activator, partial curve] |
| Cc1cc(C(=O)N2CCC(Cc3ccccc3)CC2)ccc1[N+](=O)[O-] | inconclusive: 20 µM [activator, partial curve] |
| Cc1ccc(NC(=O)C2CCN(S(=O)(=O)c3ccc4c(c3)NC(=O)C(C)S4)CC2)cc1Cl (stereo not given) | inconclusive: 25.1 µM [inhibitor, single point] |
| Nc1ncc(-c2ccc([N+](=O)[O-])cc2)cn1 | inconclusive: 35.5 µM [activator, single point] |
| COCc1cc(C)nc2sc(C(=O)Nc3ccccc3Br)c(N)c12 | inconclusive: 2.24 µM [activator, full curve, poor fit] |
| O=c1cc(/C=C/c2c(F)cccc2Cl)[nH]c2ccccc12 | inactive |
| COc1ccc(C2=NOC(CNC(N)=S)C2)cc1 (stereo not given) | inconclusive: 14.1 µM [inhibitor, single point] |
| CC(=O)c1ccc(N2CCC(c3cc(-c4ccc(Cl)cc4Cl)n[nH]3)CC2)c([N+](=O)[O-])c1 | inconclusive: 35.5 µM [inhibitor, single point] |
| CN(C)c1ccc(/C=C2\SC(=O)N(CCc3nnc(N)s3)C2=O)cc1 | active: 2.51 µM |
| O=C(CC1CC2CCC1C2)Nc1nc(-c2ccccn2)cs1 (stereo not given) | active: 3.16 µM |
| CC(C)C[C@@H](CC(=O)N[C@@H](CCC(=O)O)CC(=O)O)NC(=O)[C@@H]1CCCC[C@H]1NC(=O)C[C@H](CCCN)NC(=O)C[C@H](Cc1ccccc1)NC(=O)[C@@H]1CNCC[C@H]1N | inactive |
| CS(=O)(=O)N(CC(=O)N/N=C/c1ccco1)c1ccccc1Br | inactive |
| COC(=O)CNc1c(-c2ccccn2)nc2ccc(Br)cn12 | inconclusive: 12.6 µM [inhibitor, single point] |
| Cc1cc(N2CCN(C(=O)c3cccs3)CC2)c(F)cc1[N+](=O)[O-] | inconclusive: 35.5 µM [activator, single point] |
| CCn1c(O)c(N=NC(=O)CNc2cccc(C)c2)c2ccccc21 | inactive |
| c1ccc(COc2ccc(CNCc3cccs3)cc2)cc1 | inconclusive: 35.5 µM [inhibitor, single point] |
| Cc1ccc(C(=O)OCC(=O)Nc2ccc(N(C)C)cc2)cc1NC(=O)c1ccco1 | inactive |
| CC(C)CC1=NN(C(=O)c2ccco2)C(O)(C(F)(F)F)C1 (stereo not given) | active: 6.31 µM |
| Fc1cccc(Cn2cc(C(=S)N3CCCCC3)c3ccccc32)c1 | active: 7.08 µM |
| COc1ccc(C(=O)Nc2cccc(/C=C(\CCC(=O)O)c3nc4ccccc4s3)c2)cc1 | inconclusive: 22.4 µM [activator, single point] |
| N=c1sccn1CC(=O)Nc1ccccc1-c1ccccc1 | inconclusive: 22.4 µM [activator, single point] |
| COc1cccc(C(=O)CC(=O)C(=O)Nc2ccc([N+](=O)[O-])cc2C)c1 | inconclusive: 22.4 µM [inhibitor, single point] |
| COc1ccc(N2CCN(CC(O)COC(c3ccccc3)c3ccccc3)CC2)cc1 (stereo not given) | inconclusive: 35.5 µM [activator, single point] |

Part of the list above, as tab-separated lines.
SMILES	Potency
COc1ccc(C(=O)Nc2cccc(/C=C(\CCC(=O)O)c3nc4ccccc4s3)c2)cc1	inconclusive: 22.4 µM [activator, single point]
N=c1sccn1CC(=O)Nc1ccccc1-c1ccccc1	inconclusive: 22.4 µM [activator, single point]
COc1cccc(C(=O)CC(=O)C(=O)Nc2ccc([N+](=O)[O-])cc2C)c1	inconclusive: 22.4 µM [inhibitor, single point]

Laid out differently: entries from further up.
SMILES	Potency
COC(=O)c1cnn(-c2ccccc2)c1N	inconclusive: 0.355 µM [activator, partial curve]
O=c1cc(/C=C/c2c(F)cccc2Cl)[nH]c2ccccc12	inactive

Next part

| SMILES | Potency |
| --- | --- |
| COc1ccc(-c2cn(-c3ccc(C)cc3)c(=O)n2CC(=O)Nc2ccc(OC)c(OC)c2)cc1 | inactive |
| Clc1ccc(CN(CC2CCCO2)C(c2cccs2)c2nnnn2C2CCCC2)cc1 (stereo not given) | inconclusive: 6.31 µM [activator, partial curve, poor fit] |
| CC(C)(C)C(=O)Nc1nc(-c2ccccc2)ns1 | inconclusive: 2.24 µM [activator, partial curve] |
| O=C(CCN1CCCCC1)NNC(=S)NC(=O)c1ccc(Br)cc1 | active: 2 µM |
| Cc1cc(/C=N/N2CCN(C)CC2)c(C)n1-c1ccc(Cl)cc1 | inactive |
| COc1ccc(NC(=O)c2ccc3c(c2)NC(=O)CS3)cc1S(=O)(=O)Nc1ccc(Br)cc1 | inactive |
| COc1ccc(NC(=O)CSc2nnc(-c3ccccc3C)n2N)cc1OC | inconclusive: 11.2 µM [inhibitor, partial curve, poor fit] |
| COC(=O)/C(=C\Nc1ccc(Cl)cc1Cl)NC(=O)c1ccccc1 | inactive |
| CCOc1ccc(NC2=CC(=O)CCC2)cc1 | inactive |
| CC1CC(C)CN(C(=O)CCNC(=O)c2ccccc2Cl)C1 (stereo not given) | active: 15.8 µM |
| Cc1cccc(N2CCN(S(=O)(=O)c3ccc4c(c3)NC(=O)CS4)CC2)c1C | inactive |
| COCCCn1c(C23CC4CC(CC(C4)C2)C3)n[nH]c1=S | active: 5.01 µM |
| CCOC(=O)C1(Cc2cccc(F)c2)CCN(C(=O)c2cnc(C)cn2)CC1 | inactive |
| CC(=O)c1cn(CC(=O)Nc2ccc(C)c(C)c2)c2ccccc12 | inconclusive: 2.51 µM [activator, single point] |
| Cc1ccc(C)c(-c2ccc(=O)n(Cc3c(F)cccc3Cl)n2)c1 | inconclusive: 22.4 µM [activator, single point] |
| COc1ccc(N2CCN(C(=O)CCN3C(=S)NC(C)(C)CC3C)CC2)cc1 (stereo not given) | active: 11.2 µM |
| O=[N+]([O-])c1ccc(N=Nc2c(Cl)cc(O)cc2Cl)cc1 | inconclusive: 6.31 µM [inhibitor, full curve, poor fit] |
| Cc1nc([N+](=O)[O-])c(Sc2nc3ccccc3[nH]2)n1Cc1ccccc1 | active: 10 µM |
| CC1=NN(C(N)=S)C(=O)C1N=Nc1cccc2ccccc12 (stereo not given) | active: 0.631 µM |
| O=C(N/N=C/c1ccccc1O)C(=O)Nc1ccccn1 | active: 1.41 µM |
| Cc1nn(Cc2ccc(C(=O)NN)cc2)c(C)c1Cl | inconclusive: 20 µM [inhibitor, single point] |
| CC[C@@]1(O)C[C@H](O[C@H]2C[C@@H](N(C)C)[C@@H](O[C@H]3C[C@@H](O)[C@@H](O[C@H]4CCC(=O)[C@@H](C)O4)[C@@H](C)O3)[C@@H](C)O2)c2c(cc3c(c2O)C(=O)c2c(O)cccc2C3=O)[C@H]1C(=O)OC | active: 0.316 µM |
| CC1CCc2nn(CC(=O)N3CCCCCC3)cc2C1 (stereo not given) | inconclusive: 31.6 µM [activator, single point] |
| CC(C)Oc1cccc(C(=O)C2CCCN(Cc3ccc4nonc4c3)C2)c1 (stereo not given) | inconclusive: 3.98 µM [activator, full curve, poor fit] |

| SMILES | Potency |
| --- | --- |
| CSc1ccc(CN2C(=O)NC3(CCCCCCC3)C2=O)cc1 | inconclusive: 15.8 µM [activator, single point] |
| Cn1c(N)c(C(=O)COC(=O)[C@H](Cc2ccccc2)N2C(=O)c3ccccc3C2=O)c(=O)n(C)c1=O | inconclusive: 35.5 µM [activator, single point] |
| COc1cc(N=c2ssnc2Cl)cc(OC)c1OC | inconclusive: 35.5 µM [inhibitor, single point] |
| Cc1ccccc1NC(=S)NC(NC(=O)C(C)(C)C)C(Cl)(Cl)Cl (stereo not given) | inconclusive: 15.8 µM [inhibitor, single point] |
| Cc1ccc(C2NC(=S)NC3=C2C(=O)CC(C)(C)C3)cc1 (stereo not given) | inconclusive: 35.5 µM [inhibitor, single point] |
| COc1ccc(N(CC(=O)NC2CCCCC2)C(=O)CCC(=O)Nc2nc(C)cs2)cc1OC | inconclusive: 12.6 µM [activator, partial curve, poor fit] |
| COc1ccc(C(=O)CC(=O)c2ccccc2O)cc1OC | active: 7.08 µM |
| O=C(/C=C/c1ccco1)NC(=S)NNC(=O)c1ccco1 | inconclusive: 3.16 µM [inhibitor, single point] |
| CC(=O)NNC(=O)c1[nH]c2ccc(Cl)cc2c1-c1ccccc1 | inactive |
| CCCOc1ccc(CNC(=S)Nc2ccccc2)cc1Cl | active: 5.01 µM |
| Cc1cc(C)c2nc(Cl)c(CN(Cc3ccco3)C(=O)Nc3ccccc3C)cc2c1 | inconclusive: 6.31 µM [activator, single point] |
| C/C(=N\Nc1ncc(Cl)cc1Cl)c1ccc(C#N)cc1 | inconclusive: 35.5 µM [inhibitor, single point] |
| Fc1ccc(C2=Nn3c(nnc3-c3n[nH]c4c3CCC4)SC2)cc1 | inconclusive: 3.16 µM [inhibitor, partial curve, poor fit] |
| CC(C)(C)NC(=O)COC(=O)c1ccccc1Nc1ccc(SC(F)F)cc1 | inactive |
| Cn1nc(-c2ccccc2F)c2cc(C(=O)Nc3ccc4c(c3)OCCO4)sc21 | inconclusive: 5.62 µM [inhibitor, single point] |
| COCCNc1nc(N)c([N+](=O)[O-])c(NCc2ccccc2)n1 | inactive |
| CCOC(=O)CN(C(=O)CNC(=O)c1cccs1)C(C(=O)NC1CCCCC1)c1cccs1 (stereo not given) | inactive |
| Cc1nnc(NC2=NCCC2)s1 | inconclusive: 25.1 µM [inhibitor, single point] |
| Cc1cc(C)cc(OCc2nnc(SCC(=O)c3ccc(Br)cc3)o2)c1 | inconclusive: 25.1 µM [inhibitor, single point] |
| CCC(C)NS(=O)(=O)c1ccc(NC(=O)c2ccc([N+](=O)[O-])cc2Cl)cc1 (stereo not given) | inconclusive: 35.5 µM [activator, single point] |
| Cc1ccc(NC(=O)C2CCN(C(=O)c3cccs3)CC2)c(C)c1 | inactive |
| O=S(=O)(c1cc(Cl)ccc1Cl)N1CCN(Cc2ccc3c(c2)OCO3)CC1 | inconclusive: 17.8 µM [inhibitor, partial curve, poor fit] |
